The values that follow come from paper PMC10834545.

Sequences of proteins named here, by UniProt entry; tags and fusion partners are left off.
UniProt P01106: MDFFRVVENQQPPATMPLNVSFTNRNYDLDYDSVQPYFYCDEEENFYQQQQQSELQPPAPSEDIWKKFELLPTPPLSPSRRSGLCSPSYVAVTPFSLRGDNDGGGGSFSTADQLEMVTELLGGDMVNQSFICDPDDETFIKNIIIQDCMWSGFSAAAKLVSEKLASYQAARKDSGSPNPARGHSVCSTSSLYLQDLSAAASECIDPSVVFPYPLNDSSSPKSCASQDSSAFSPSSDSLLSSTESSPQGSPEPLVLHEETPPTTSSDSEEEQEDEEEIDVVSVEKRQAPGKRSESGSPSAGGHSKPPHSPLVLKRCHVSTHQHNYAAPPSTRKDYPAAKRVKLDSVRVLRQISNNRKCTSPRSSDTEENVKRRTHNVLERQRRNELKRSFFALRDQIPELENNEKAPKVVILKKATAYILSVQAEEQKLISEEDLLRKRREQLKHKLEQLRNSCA

These are yes or no findings as the source states them, for the method shown. In cells and extracts the contact can be indirect. Here binding means that the protein was enriched with, or labelled near, the bait; the list need not be complete. Sequences can lack the tags named with a protein.

The target in this assay is T1, Flag-tagged follistatin-like 3 (FSTL3), overexpressed from lentivirus in FSTL3-OE HCT116 cells (UniProt O95633).
T1 sequence: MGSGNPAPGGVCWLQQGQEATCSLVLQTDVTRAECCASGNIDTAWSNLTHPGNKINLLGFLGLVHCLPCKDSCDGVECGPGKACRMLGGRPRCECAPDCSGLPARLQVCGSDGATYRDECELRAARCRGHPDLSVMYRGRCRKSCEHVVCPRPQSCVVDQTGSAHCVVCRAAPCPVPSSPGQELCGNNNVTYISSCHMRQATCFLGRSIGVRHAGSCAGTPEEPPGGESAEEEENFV
In words: affinity purification with mass spectrometry; anti-Flag immunoprecipitate from lysate of Flag-tagged FSTL3-OE HCT116 cells; 10% gel, silver staining, LC-MS/MS.

On to “MYC proto-oncogene, bHLH transcription factor (c-Myc), endogenous in HCT116 cells (from UniProt P01106 1-454)”, for which the binding result is given as “binds”.
